Laboratory results as given in the supplement of paper PMC6078165.
Values are relative to the signal before dosing, not to a vehicle control; the signal also falls without drug.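 Fibroblast labels name human fibroblasts: mostly primary ones from tissues such as uterus (C12385, HUF), lung (H6013), bone (Hs27A), adrenal (HADF) and skin (WS1), plus mammary HMF and breast cancer-associated Hs343T. The cancer cells are basal-like or mesenchymal-like triple-negative breast cancer lines. The paper calls a changed response a hit when it shifts by more than 3x the replicate standard deviation. The tissue of the other fibroblasts is not given here.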

Test system: MDAMB468
Experiment: relative JC-1 red fluorescence (viability) vs pre-drug, coculture with fibroblast (fraction); higher = more viable cancer cells
Conditions: 10 µM
Description: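 JC-1 labelled TNBC cells cocultured 1:1 (1,500 cells each) with CellTrace Violet stained primary or stromal fibroblasts in 384-well plates in FluoroBrite medium, treated with one of 42 anticancer drugs at 0.1, 1, 10 or 100 uM. JC-1 red fluorescence (mitochondrial integrity in cancer cells only) was read by plate reader every 8 h for 72 h. Values are normalised to each well's pre-drug value. The stock of one drug was tenfold lower, so its dose labels may be too high.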

O=C(O)C1(C(=O)O)CCC1.[NH2-].[NH2-].[Pt+2] [Carboplatin]
relative JC-1 red fluorescence
Conditions	8 h	16 h	24 h	32 h	40 h	48 h	56 h	64 h	72 h
coculture fibroblast: C12385	0.8864	0.84	0.7847	0.7208	0.669	0.645	0.599	0.557	0.5308
coculture fibroblast: H6013	0.8838	0.8265	0.8058	0.791	0.76	0.757	0.728	0.708	0.658
coculture fibroblast: H6019	0.837	0.77	0.745	0.688	0.647	0.628	0.577	0.545	0.524
coculture fibroblast: H6076	0.958	0.817	0.894	0.903	0.827	0.825	0.7847	0.769	0.822
coculture fibroblast: H6231	0.8593	0.9449	0.8969	0.9096	0.859	0.842	0.788	0.7714	0.763
coculture fibroblast: HADF	0.9011	0.8395	0.795	0.784	0.722	0.706	0.657	0.626	0.574
coculture fibroblast: HCFa	0.8763	0.821	0.787	0.764	0.698	0.686	0.631	0.6002	0.5578
coculture fibroblast: HCPF	0.888	0.9782	0.936	0.924	0.848	0.818	0.775	0.7583	0.7531
coculture fibroblast: HHSteC	0.8976	0.8474	0.81104	0.7666	0.7242	0.719	0.654	0.623	0.567
coculture fibroblast: HMF	0.8622	0.924	0.905	0.881	0.822	0.802	0.752	0.728	0.696
coculture fibroblast: HPFa	0.956	0.939	0.917	0.863	0.843	0.848	0.773	0.751	0.652
coculture fibroblast: HUF	0.907	0.813	0.745	0.673	0.618	0.579	0.537	0.507	0.471
coculture fibroblast: Hs5	0.875	0.888	0.947	0.911	0.84	0.815	0.781	0.754	0.784
coculture fibroblast: Hs27A	0.866	0.816	0.789	0.7817	0.721	0.715	0.685	0.672	0.625
coculture fibroblast: Hs343T	0.9135	0.922	0.91	0.88924	0.8056	0.7849	0.719	0.693	0.661
coculture fibroblast: WS1	0.8754	0.7911	0.7347	0.662	0.605	0.56	0.518	0.471	0.44
